Paper PMC4548209
Results are given in words; binding and its absence hold for the method and conditions named. A result given as binding can be weak or reduced; the word gives no strength.

Sequences of proteins named here, by UniProt entry; tags and fusion partners are left off. A change or cut given only in a name is not applied to a line headed by its entry.
UniProt P42582: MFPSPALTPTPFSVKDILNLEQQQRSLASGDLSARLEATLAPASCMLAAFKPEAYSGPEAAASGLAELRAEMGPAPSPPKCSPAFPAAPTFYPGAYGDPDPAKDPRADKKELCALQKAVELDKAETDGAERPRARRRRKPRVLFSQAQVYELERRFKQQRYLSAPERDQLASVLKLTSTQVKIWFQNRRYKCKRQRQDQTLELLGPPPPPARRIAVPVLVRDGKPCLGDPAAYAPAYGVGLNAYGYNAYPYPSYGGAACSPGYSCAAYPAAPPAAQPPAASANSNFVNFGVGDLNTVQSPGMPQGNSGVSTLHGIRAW

Molecular target: Full-length NKX2-5 (yeast two-hybrid fusion) (mouse) (UniProt P42582)
Test: two-hybrid; pGADT7-AD and pGBKT7-DBD fusions co-transformed into S. cerevisiae AH109; interaction as growth on -Ade/-His/-Leu/-Trp plates; three independent experiments

Substance | binding
NKX2-5 C-terminus with mutated NK2-specific domain (yeast two-hybrid fusion) (from UniProt P42582) (domain or fragment) | binds
NKX2-5 C-terminus with mutated Nkx2-5 box (yeast two-hybrid fusion) (from UniProt P42582) (domain or fragment) | binds
